# Percent effect of library compounds

From ChEMBL document CHEMBL3988442, “University of Dundee, Small-Polar-MMV Screening Library” (2021).

Mtb cholesterol medium: 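Phenotypic screen: M. tuberculosis growth, cholesterol and DPPC medium, 4 days; the read-out is not stated. Compounds at 50 µM. The record gives no direction; compounds that gave an IC50 in retests scored well above the rest, so higher reads as more growth inhibition. Of about 69,000 compounds tested this way, about 370 (0.54%) reached 50% or more in at least one test.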
Mtb glucose medium: 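Growth of Mycobacterium tuberculosis over 3 days (7H9 medium with glucose and tyloxapol); the read-out is not stated. Compounds at 50 µM. The record gives no direction; compounds that gave an IC50 in retests scored well above the rest, so higher reads as more growth inhibition. About 69,000 compounds were tested under these conditions; 1.1% (about 760) showed 50% or more at least once.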

The filed quantity is “Percent Effect” (%).
How 0% and 100% were set is not recorded. Most values in the screen are low, and negative values occur.
Compounds were drawn at random from those tested, without regard to their results.
Two or more numbers in one place are separate tests of the same structure; such repeats can differ widely.

For O=C(CCc1cccs1)Nc1ccnn1C1CCS(=O)(=O)C1 (centres unmarked) the result was Mtb cholesterol medium: -5.738%; Mtb glucose medium: -8.86%.
For CCOC(=O)CC(C)Nc1nc(C(C)(C)C)nc2c1cnn2C (centres unmarked) the result was Mtb cholesterol medium: -15.91%; Mtb glucose medium: -6.557%.
For [H][C@]12CN(Cc3cccc(OC(F)(F)F)c3)CCN1C(=O)N(CCOC)C2 the result was Mtb cholesterol medium: 4.944%; Mtb glucose medium: 1.962% & 11.33%.
For Cc1cc(C)n(CC2CN(Cc3cscn3)CCO2)n1 (centres unmarked) the result was Mtb cholesterol medium: -11.1%; Mtb glucose medium: 15.1%.
For CCCC(O)CN1CC(C)(C)CN(C(=O)c2ccc(Cl)cc2)CC1=O (centres unmarked) the result was Mtb cholesterol medium: 18.45%; Mtb glucose medium: 18.7%.
For CN(C)[C@H]1C[C@@H](Cc2cc(-c3ccc(F)cc3)on2)C1(C)C the result was Mtb cholesterol medium: 15.42%; Mtb glucose medium: 17.58% & 59.33%.
For Cc1cccc(-n2cc(CNc3ncnc4c3CCNCC4)cn2)c1 the result was Mtb cholesterol medium: -5.556%; Mtb glucose medium: 35.94%.
For Cc1nnc(C(C)Nc2ccc(OCCc3ccccc3)nc2)o1 (centres unmarked) the result was Mtb cholesterol medium: -0.4251%; Mtb glucose medium: 28.57% & 16.59%.
For Cc1cc(=O)[nH]c(=O)n1COCc1ccccc1 the result was Mtb cholesterol medium: 18.66%; Mtb glucose medium: 27.35%.
For CN1C[C@]2(CC[C@@H](C(=O)O)CC2)Oc2ccccc2C1=O the result was Mtb cholesterol medium: -17.87% & -4.775%; Mtb glucose medium: -14.53%.
For COc1ncccc1NC(=O)N(Cc1ccco1)C1CC1 the result was Mtb cholesterol medium: 12.41%; Mtb glucose medium: 16.79%.
For Cl.NC(=O)COc1ccc(CNCc2ccc(F)c(F)c2)cc1 the result was Mtb cholesterol medium: -13.13%; Mtb glucose medium: -1.154% & -2.85%.
For Cn1c(=O)oc2ccc(NC(=O)N3CCc4ccccc4C3)cc21 the result was Mtb cholesterol medium: 7.794%; Mtb glucose medium: 12.2%.
For [H][C@@]12CN(C(=O)c3cc(C)on3)C[C@@]1([H])N(CC1CC1)C(=O)CO2 the result was Mtb cholesterol medium: -40.17%; Mtb glucose medium: -35.72%.
For Cc1nn(CC(C)C)c(N(C)C)c1CNCc1ccc2c(c1)OCO2 the result was Mtb cholesterol medium: 9.293%; Mtb glucose medium: 30.44%.
For CCCc1cnc(C)nc1N1CCC2(CC1)CNC(=O)O2 the result was Mtb cholesterol medium: -4.493% & -2.044%; Mtb glucose medium: -22.18%.
For N[C@H]1CN(CCOc2ccc(F)cc2)C[C@@H]1C1CC1 the result was Mtb cholesterol medium: 11.61%; Mtb glucose medium: 39.97%.
For COCc1n[nH]/c(=N\C(=O)c2c3c(nc4onc(C)c24)CCC3)s1 the result was Mtb cholesterol medium: 12.28%; Mtb glucose medium: 8.696%.
For Cc1cnc(N)c(C(=O)C2CCN(C(=O)c3cnc(C)nc3C)CC2)c1 the result was Mtb cholesterol medium: -16.63%; Mtb glucose medium: 8.368%.
For Cc1nccn1CCCN1CCCC(c2nccn2CC2CCC2)C1 (centres unmarked) the result was Mtb cholesterol medium: -0.2023%; Mtb glucose medium: 9.675%.
For O=c1[nH]c2nc(N3CCSCC3)ncc2c(=O)n1-c1cccc(F)c1 the result was Mtb cholesterol medium: -13.36%; Mtb glucose medium: -1.104% & -21.66%.
For Cn1cccc1C(O)CNC(=O)c1ccc(C(F)(F)F)cc1 (centres unmarked) the result was Mtb cholesterol medium: 8.957%; Mtb glucose medium: 9.228%.
For CN(Cc1nnc2n1CCC2)C(=O)c1ccc2c(c1)OCO2 the result was Mtb cholesterol medium: -7.393%; Mtb glucose medium: -12.86%.
For CC(C)n1ccc(C(=O)OCC2CC(=O)N(Cc3ccccc3)C2)n1 (centres unmarked) the result was Mtb cholesterol medium: 8.87%; Mtb glucose medium: 13.34%.
For CC1CCN(C(CNC(=O)CCn2cccn2)c2cccs2)CC1 (centres unmarked) the result was Mtb cholesterol medium: -3.538%; Mtb glucose medium: -10.74%.
For OC1(CN2CCCC(Cn3cncn3)C2)CCCCC1 (centres unmarked) the result was Mtb cholesterol medium: -24.52%; Mtb glucose medium: -33.61%.
For CC[C@H]1CN(S(=O)(=O)c2ccc(OC)cc2)CC[C@H]1CC(=O)O the result was Mtb cholesterol medium: 8.139%; Mtb glucose medium: -6.06% & 17.76%.
For Cc1noc(C)c1CNC(=O)Nc1ccc(N2CCOC2=O)cc1 the result was Mtb cholesterol medium: 0.9795%; Mtb glucose medium: 12.13%.
For Cc1ccc(Cl)cc1NC(=O)Nc1c[nH]c(=O)[nH]c1=O the result was Mtb cholesterol medium: 20.8%; Mtb glucose medium: 12.72%.
For Cc1nc(C)n(CC2CCCCN2CCOc2ccc(C#N)cc2)n1 (centres unmarked) the result was Mtb cholesterol medium: -6.358%; Mtb glucose medium: -18.67%.